In article PMC6486637:
Results are given in words; binding and its absence hold for the method and conditions named. In cells and extracts the contact can be indirect. Some binding calls cover weakened binding; strength is not graded here.

Sequences of proteins named here, by UniProt entry; tags and fusion partners are left off.
UniProt O15318: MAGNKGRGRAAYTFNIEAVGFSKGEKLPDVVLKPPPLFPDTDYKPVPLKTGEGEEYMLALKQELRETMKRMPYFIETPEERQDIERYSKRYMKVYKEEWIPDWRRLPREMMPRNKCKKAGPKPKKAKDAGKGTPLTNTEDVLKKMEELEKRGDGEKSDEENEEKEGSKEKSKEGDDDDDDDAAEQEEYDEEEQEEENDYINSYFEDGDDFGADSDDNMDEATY

T1: POLR3A, the largest (catalytic) subunit of RNA polymerase III (human (endogenous in PC-3)) (UniProt O14802)
T1 sequence: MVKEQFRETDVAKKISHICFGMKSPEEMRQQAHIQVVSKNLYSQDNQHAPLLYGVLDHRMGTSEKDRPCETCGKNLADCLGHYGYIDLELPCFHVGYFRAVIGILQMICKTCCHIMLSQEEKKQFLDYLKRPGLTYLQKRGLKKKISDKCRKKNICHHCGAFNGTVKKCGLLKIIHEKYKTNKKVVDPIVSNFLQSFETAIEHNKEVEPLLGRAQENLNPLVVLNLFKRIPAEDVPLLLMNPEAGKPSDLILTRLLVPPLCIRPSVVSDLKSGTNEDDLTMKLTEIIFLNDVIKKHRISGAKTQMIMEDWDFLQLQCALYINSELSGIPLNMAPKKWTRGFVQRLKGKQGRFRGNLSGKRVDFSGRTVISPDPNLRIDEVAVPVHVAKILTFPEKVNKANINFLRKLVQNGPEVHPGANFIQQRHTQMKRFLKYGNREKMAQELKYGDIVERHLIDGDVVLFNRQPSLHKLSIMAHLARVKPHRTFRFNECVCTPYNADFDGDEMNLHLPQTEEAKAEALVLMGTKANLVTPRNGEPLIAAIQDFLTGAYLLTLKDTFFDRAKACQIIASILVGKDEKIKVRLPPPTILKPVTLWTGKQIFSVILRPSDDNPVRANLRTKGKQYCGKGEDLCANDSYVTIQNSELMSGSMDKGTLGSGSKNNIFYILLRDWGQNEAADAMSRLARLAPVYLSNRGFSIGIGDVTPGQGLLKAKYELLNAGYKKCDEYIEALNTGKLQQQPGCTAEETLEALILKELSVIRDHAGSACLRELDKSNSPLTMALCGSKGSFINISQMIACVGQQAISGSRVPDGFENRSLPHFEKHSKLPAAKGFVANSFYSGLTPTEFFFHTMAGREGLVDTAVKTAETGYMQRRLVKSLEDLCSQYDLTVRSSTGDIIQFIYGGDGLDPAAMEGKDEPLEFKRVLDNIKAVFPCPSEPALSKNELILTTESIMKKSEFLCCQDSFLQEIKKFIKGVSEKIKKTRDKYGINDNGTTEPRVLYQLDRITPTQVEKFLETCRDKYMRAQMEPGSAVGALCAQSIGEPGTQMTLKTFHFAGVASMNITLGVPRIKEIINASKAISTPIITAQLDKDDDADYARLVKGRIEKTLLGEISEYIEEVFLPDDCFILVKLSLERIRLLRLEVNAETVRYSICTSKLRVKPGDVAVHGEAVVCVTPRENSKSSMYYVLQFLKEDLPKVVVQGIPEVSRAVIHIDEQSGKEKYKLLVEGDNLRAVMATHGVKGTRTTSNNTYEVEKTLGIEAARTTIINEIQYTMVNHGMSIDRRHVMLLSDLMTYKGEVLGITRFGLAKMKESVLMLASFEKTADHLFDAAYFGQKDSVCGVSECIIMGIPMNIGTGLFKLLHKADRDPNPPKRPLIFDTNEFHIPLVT


Biological target: T1, POLR3A, the largest (catalytic) subunit of RNA polymerase III (human (endogenous in PC-3))
Test: co-IP; PC-3 lysates incubated overnight with antiserum 1900 against POLR3A (or preimmune serum) pre-bound to Protein A magnetic beads; washed twice with TBST containing 0.5 M NaCl and once with water; eluted with 50 mM glycine pH 2; western blot for POLR3A, POLR3G, POLR3GL; cells cultured 48 h without or with 20 μM ML-60218 (Figure 2F)

| binding | Molecule |
| --- | --- |
| binds | POLR3G (RPC7, RPC32α), RNA polymerase III subunit (from UniProt O15318 1-223) |
| binds | POLR3GL (RPC7L, RPC32β), RNA polymerase III subunit, paralogue of POLR3G (protein, UniProt Q9BT43 1-218) MASRGGGRGRGRGQLTFNVEAVGIGKGDALPPPTLQPSPLFPPLEFRPVPLPSGEEGEYVLALKQELRGAMRQLPYFIRPAVPKRDVERYSDKYQMSGPIDNAIDWNPDWRRLPRELKIRVRKLQKERITILLPKRPPKTTEDKEETIQKLETLEKKEEEVTSEEDEEKEEEEEKEEEEEEEYDEEEHEEETDYIMSYFDNGEDFGGDSDDNMDEAIY |
